Experimental data published in article PMC10726135.
These are yes or no findings as the source states them, for the method shown. In cells and extracts the contact can be indirect. These calls come from enrichment with a bait or labelling near it, and not all partners need be listed. For some of these results: No binding means not detected with the bait.

Key:
[1] = biological target: T1, P1-HNF4α (Hepatocyte Nuclear Factor 4 alpha from the P1 promoter, exon 1A), HNF4α in WT livers (mouse (endogenous in liver)) (UniProt P49698); experiment: affinity purification with mass spectrometry; RIME as in a1 and a2; the text does not tell at which time point (10:30 or 20:30) these pairs were found
T1 sequence: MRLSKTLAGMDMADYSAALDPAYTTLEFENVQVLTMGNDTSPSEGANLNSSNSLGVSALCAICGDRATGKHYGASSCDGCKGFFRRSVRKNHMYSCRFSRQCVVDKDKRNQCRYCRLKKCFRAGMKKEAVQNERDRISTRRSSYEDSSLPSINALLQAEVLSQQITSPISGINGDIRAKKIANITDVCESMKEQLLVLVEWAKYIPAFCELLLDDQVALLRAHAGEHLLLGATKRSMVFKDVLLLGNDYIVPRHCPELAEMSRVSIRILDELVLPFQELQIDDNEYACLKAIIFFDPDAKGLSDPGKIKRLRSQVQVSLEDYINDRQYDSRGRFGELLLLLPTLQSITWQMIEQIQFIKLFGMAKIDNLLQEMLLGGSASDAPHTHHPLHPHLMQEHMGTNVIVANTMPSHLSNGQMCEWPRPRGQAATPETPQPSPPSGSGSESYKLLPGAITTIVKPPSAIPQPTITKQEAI

[2] = biological target: P2-HNF4α (Hepatocyte Nuclear Factor 4 alpha from exon 1D), HNF4α in α7HMZ livers (mouse (endogenous in liver)); experiment: as above
[3] = biological target: T1, P1-HNF4α (Hepatocyte Nuclear Factor 4 alpha from the P1 promoter, exon 1A), HNF4α in WT livers (mouse (endogenous in liver)); experiment: affinity purification with mass spectrometry; RIME: livers of WT and α7HMZ male mice (n=3) sacrificed at 10:30 (ZT3.5), crosslinked, IP'd with the P1/P2 HNF4α antibody, MudPIT; proteins at least 8-fold above IgG background; 8-fold difference between WT and α7HMZ taken as unique
[4] = biological target: T1, P1-HNF4α (Hepatocyte Nuclear Factor 4 alpha from the P1 promoter, exon 1A), HNF4α in WT livers (mouse (endogenous in liver)); experiment: affinity purification with mass spectrometry; RIME: livers of WT and α7HMZ male mice (n=3) sacrificed at 20:30 (ZT13.5), crosslinked, IP'd with the P1/P2 HNF4α antibody, MudPIT; proteins at least 8-fold above IgG background; 8-fold difference between WT and α7HMZ taken as unique
[5] = biological target: P2-HNF4α (Hepatocyte Nuclear Factor 4 alpha from exon 1D), HNF4α in α7HMZ livers (mouse (endogenous in liver)); experiment: as above
[6] = biological target: T2, P1-HNF4α (Hepatocyte Nuclear Factor 4 alpha from the P1 promoter, exon 1A), HNF4α in WT livers (mouse (endogenous in liver)), P49698; experiment: as above; settings: remark: other sources report otherwise
T2 chain: T1 sequence

[7] = biological target: T2, P1-HNF4α (Hepatocyte Nuclear Factor 4 …); experiment: affinity purification with mass spectrometry; RIME: livers of WT and α7HMZ male mice (n=3) sacrificed at 10:30 (ZT3.5), crosslinked, IP'd with the P1/P2 HNF4α antibody, MudPIT; proteins at least 8-fold above IgG background; 8-fold difference between WT and α7HMZ taken as unique; settings: remark: other sources report otherwise

B1: NR0B2 (SHP) (protein, UniProt Q62227 1-260)
chain: MSSGQSGVCPCQGSAGRPTILYALLSPSPRTRPVAPASHSHCLCQQQRPVRLCAPHRTCREALDVLAKTVAFLRNLPSFCHLPHEDQRRLLECCWGPLFLLGLAQDAVTFEVAEAPVPSILKKILLEEASSGTQGAQPSDRPQPSLAAVQWLQRCLESFWSLELGPKEYAYLKGTILFNPDVPGLRASCHIAHLQQEAHWALCEVLEPWYPASQGRLARILLMASTLKNIPGTLLVDLFFRPIMGDVDITELLEDMLLLR
binding [1]: binds | binding [2]: binds

B2: ESRRG (ERRγ, Nr3b3) (protein, UniProt P62509 1-458)
chain: MDSVELCLPESFSLHYEEELLCRMSNKDRHIDSSCSSFIKTEPSSPASLTDSVNHHSPGGSSDASGSYSSTMNGHQNGLDSPPLYPSAPILGGSGPVRKLYDDCSSTIVEDPQTKCEYMLNSMPKRLCLVCGDIASGYHYGVASCEACKAFFKRTIQGNIEYSCPATNECEITKRRRKSCQACRFMKCLKVGMLKEGVRLDRVRGGRQKYKRRIDAENSPYLNPQLVQPAKKPYNKIVSHLLVAEPEKIYAMPDPTVPDSDIKALTTLCDLADRELVVIIGWAKHIPGFSTLSLADQMSLLQSAWMEILILGVVYRSLSFEDELVYADDYIMDEDQSKLAGLLDLNNAILQLVKKYKSMKLEKEEFVTLKAIALANSDSMHIEDVEAVQKLQDVLHEALQDYEAGQHMEDPRRAGKMLMTLPLLRQTSTKAVQHFYNIKLEGKVPMHKLFLEMLEAKV
binding [3]: no binding | binding [4]: no binding | binding [5]: binds

B3: xenobiotic receptor PXR (NR1I2), O54915 1-431 (protein)
chain: MRPEESWSRVGLVQCEEADSALEEPINVEEEDGGLQICRVCGDKANGYHFNVMTCEGCKGFFRRAMKRNVRLRCPFRKGTCEITRKTRRQCQACRLRKCLESGMKKEMIMSDAAVEQRRALIKRKKREKIEAPPPGGQGLTEEQQALIQELMDAQMQTFDTTFSHFKDFRLPAVFHSGCELPEFLQASLLEDPATWSQIMKDRVPMKISLQLRGEDGSIWNYQPPSKSDGKEIIPLLPHLADVSTYMFKGVINFAKVISYFRDLPIEDQISLLKGATFEMCILRFNTMFDTETGTWECGRLAYCFEDPNGGFQKLLLDPLMKFHCMLKKLQLHKEEYVLMQAISLFSPDRPGVVQRSVVDQLQERFALTLKAYIECSRPYPAHRFLFLKIMAVLTELRSINAQQTQQLLRIQDSHPFATPLMQELFSSTDG
binding [6]: no binding | binding [7]: no binding
